Assay results reported in article PMC10568766.
Results are given in words; binding and its absence hold for the method and conditions named. In cells and extracts the contact can be indirect. Some binding calls cover weakened binding; strength is not graded here.

Target: Signal transducer and activator of transcription 3 (human (endogenous in RMF-EG)), P40763
Experiment: co-IP; RMF-EG cells with or without IL-6 (20 ng/ml, 48 h), lysed in RIPA buffer; 1 mg protein with anti-STAT3 antibody overnight at 4 °C, protein A/G beads, three washes with RIPA buffer; blots with anti-NFκB p50, anti-NFκB p65 and anti-STAT3
Settings: remark: other sources report otherwise

binding: binds
B1: NFκB p50, P19838 1-433 (protein)
chain: MAEDDPYLGRPEQMFHLDPSLTHTIFNPEVFQPQMALPTDGPYLQILEQPKQRGFRFRYVCEGPSHGGLPGASSEKNKKSYPQVKICNYVGPAKVIVQLVTNGKNIHLHAHSLVGKHCEDGICTVTAGPKDMVVGFANLGILHVTKKKVFETLEARMTEACIRGYNPGLLVHPDLAYLQAEGGGDRQLGDREKELIRQAALQQTKEMDLSVVRLMFTAFLPDSTGSFTRRLEPVVSDAIYDSKAPNASNLKIVRMDRTAGCVTGGEEIYLLCDKVQKDDIQIRFYEEEENGGVWEGFGDFSPTDVHRQFAIVFKTPKYKDINITKPASVFVQLRRKSDLETSEPKPFLYYPEIKDKEEVQRKRQKLMPNFSDSFGGGSGAGAGGGGMFGSGGGGGGTGSTGPGYSFPHYGFPTYGGITFHPGTTKSNAGMKHG
